This passage reports binding results from publication PMC11536904.

Chains of the proteins cited; added tags and fusions are not shown.
UniProt Q9H4A3: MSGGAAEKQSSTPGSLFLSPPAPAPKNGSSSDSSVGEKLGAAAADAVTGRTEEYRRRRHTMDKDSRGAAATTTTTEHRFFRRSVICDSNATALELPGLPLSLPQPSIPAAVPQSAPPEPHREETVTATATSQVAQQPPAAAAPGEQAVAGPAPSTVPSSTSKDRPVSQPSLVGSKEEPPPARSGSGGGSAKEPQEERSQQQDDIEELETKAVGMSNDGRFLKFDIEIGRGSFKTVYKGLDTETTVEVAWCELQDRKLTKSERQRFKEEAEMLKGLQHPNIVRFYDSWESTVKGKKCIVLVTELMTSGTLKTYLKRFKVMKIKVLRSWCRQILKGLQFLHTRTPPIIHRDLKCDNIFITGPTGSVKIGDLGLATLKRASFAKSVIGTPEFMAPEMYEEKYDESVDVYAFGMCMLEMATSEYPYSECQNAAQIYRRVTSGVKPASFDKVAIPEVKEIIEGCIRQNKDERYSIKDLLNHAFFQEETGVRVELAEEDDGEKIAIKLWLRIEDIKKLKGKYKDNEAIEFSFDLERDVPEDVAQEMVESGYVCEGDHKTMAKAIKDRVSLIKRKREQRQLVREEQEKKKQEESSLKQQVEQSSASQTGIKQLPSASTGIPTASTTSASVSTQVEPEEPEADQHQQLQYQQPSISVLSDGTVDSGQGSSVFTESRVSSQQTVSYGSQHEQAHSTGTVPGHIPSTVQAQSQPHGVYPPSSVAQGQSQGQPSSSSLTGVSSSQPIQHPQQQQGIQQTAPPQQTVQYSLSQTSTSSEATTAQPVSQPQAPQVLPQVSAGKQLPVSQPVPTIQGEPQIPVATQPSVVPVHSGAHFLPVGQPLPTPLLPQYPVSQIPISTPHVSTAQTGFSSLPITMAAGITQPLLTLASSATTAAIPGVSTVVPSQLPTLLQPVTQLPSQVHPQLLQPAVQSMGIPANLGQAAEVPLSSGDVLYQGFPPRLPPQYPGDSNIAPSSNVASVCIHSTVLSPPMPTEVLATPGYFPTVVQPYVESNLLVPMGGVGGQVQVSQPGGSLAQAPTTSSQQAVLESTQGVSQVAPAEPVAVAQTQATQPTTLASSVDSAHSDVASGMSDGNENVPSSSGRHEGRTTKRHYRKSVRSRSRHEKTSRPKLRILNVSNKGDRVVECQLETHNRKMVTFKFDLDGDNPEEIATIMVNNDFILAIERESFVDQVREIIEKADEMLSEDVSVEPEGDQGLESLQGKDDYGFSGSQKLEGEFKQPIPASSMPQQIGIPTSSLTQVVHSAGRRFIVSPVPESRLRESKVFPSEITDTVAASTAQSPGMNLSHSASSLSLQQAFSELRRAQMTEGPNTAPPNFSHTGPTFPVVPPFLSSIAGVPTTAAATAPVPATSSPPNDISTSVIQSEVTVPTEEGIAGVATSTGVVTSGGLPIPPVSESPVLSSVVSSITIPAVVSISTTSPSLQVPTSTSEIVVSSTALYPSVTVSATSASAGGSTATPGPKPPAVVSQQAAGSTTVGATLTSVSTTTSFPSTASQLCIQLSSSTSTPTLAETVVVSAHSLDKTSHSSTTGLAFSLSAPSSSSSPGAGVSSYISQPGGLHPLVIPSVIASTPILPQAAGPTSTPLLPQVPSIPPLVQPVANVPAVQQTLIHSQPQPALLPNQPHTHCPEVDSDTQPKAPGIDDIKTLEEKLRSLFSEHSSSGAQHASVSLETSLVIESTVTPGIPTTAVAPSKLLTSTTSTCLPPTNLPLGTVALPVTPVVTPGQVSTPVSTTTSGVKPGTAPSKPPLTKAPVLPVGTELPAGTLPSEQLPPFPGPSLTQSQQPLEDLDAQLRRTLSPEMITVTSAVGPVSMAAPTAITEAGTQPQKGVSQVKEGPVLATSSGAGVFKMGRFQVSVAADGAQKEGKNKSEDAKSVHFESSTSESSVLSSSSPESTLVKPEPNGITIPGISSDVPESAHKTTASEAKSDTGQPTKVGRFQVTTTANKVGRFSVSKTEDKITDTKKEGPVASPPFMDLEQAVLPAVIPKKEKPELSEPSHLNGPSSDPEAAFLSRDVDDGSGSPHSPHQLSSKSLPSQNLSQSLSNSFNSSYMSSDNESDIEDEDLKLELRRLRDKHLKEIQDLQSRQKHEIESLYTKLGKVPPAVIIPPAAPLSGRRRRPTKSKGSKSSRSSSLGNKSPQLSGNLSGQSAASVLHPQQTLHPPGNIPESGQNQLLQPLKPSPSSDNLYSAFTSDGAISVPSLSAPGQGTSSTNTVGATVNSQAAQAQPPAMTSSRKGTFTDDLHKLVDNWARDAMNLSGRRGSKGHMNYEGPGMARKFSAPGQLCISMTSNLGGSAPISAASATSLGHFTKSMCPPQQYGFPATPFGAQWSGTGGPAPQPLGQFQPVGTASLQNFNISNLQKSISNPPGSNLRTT
UniProt Q96GD4: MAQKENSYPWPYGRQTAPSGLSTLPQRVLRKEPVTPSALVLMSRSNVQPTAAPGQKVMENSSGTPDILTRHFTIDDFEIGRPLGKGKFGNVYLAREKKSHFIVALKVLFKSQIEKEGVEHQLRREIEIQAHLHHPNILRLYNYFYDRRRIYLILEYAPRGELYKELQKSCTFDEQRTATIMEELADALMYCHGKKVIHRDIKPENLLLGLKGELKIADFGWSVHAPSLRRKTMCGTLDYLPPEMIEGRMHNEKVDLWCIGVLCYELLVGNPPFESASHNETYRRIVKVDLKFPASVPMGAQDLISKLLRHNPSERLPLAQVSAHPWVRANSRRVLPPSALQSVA

In the assay the target is T1, Endogenous FOXF1 of human lung endothelial colony-forming cells (human (endogenous in hECFCs)) (UniProt Q12946).
T1 sequence: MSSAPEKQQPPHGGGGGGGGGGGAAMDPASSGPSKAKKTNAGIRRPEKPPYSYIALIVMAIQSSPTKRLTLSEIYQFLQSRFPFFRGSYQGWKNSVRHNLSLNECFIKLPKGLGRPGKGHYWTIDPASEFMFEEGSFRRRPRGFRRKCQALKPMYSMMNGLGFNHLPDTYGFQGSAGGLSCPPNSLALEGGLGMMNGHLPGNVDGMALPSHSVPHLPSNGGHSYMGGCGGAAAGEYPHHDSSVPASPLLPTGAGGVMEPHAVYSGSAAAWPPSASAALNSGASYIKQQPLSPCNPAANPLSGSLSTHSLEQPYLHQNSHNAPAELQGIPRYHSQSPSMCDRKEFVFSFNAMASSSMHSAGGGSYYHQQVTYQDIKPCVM
As to the kind of experiment: affinity purification with mass spectrometry; FOXF1 complexes enriched via immunoprecipitation from hECFCs; associating proteins identified by mass spectrometry (manuscript in preparation).

Results are given in words; binding and its absence hold for the method and conditions named. In cells and extracts the contact can be indirect. Here binding means that the protein was enriched with, or labelled near, the bait; the list need not be complete.

Consider “WNK lysine deficient protein kinase 1 (from UniProt Q9H4A3 1-2382) (enzyme)”, for which the binding entry was “binds”.

For the substance “aurora kinase B (from UniProt Q96GD4 1-344) (enzyme)”, the binding result is reported as “binds”.
